Experimental data: patent publication US9499509B2, “Dihydrochalcone derivatives and their use as antibiotic agents” (UNIVERSITÉ DU QUÉBEC À CHICOUTIMI, priority 2012, dated 2016)

System: WS-1 cell lines
Assay: Cytotoxicity assay on WS-1 (Example 1)
Settings: ratio of toxicity on WS-1 to toxicity on S. aureus WT ATCC 25923
Procedure: Cytotoxicity assay. The cytotoxicity assay was performed in 96-well plates (BD Falcon). The WS-1 cell lines were provided by ATCC. The WS-1 was cultured in DMEM+10% fetal calf serum. The cells were plated in a volume of 100 μL at a density of 5000 cells per well and incubated at 37° C.+5% CO2 for 24 h to promote cell adhesion.
The plates were incubated at 37° C.+5% CO2 for 48 h. The cells were then washed with 100 μL of HBSS and 150 μL of a 2% resazurin were added to the wells.
The therapeutic index is the ratio between the toxicity on normal cells, in this case fibroblast, and the toxicity on bacteria.

Which Therapeutic index does the source give for `COc1cc(O)c(C(=O)CCc2ccc(O)cc2)c(O)c1C/C=C/c1ccc(O)cc1` [Compound I] here?
The Therapeutic index was 18.
